# Assay results taken from PubChem BioAssay (EPA / NIEHS).
# Chains of the proteins cited; added tags and fusions are not shown. Lines headed by an entry give the natural chain unless they say otherwise; changes in a name come on top.
# UniProt P10275: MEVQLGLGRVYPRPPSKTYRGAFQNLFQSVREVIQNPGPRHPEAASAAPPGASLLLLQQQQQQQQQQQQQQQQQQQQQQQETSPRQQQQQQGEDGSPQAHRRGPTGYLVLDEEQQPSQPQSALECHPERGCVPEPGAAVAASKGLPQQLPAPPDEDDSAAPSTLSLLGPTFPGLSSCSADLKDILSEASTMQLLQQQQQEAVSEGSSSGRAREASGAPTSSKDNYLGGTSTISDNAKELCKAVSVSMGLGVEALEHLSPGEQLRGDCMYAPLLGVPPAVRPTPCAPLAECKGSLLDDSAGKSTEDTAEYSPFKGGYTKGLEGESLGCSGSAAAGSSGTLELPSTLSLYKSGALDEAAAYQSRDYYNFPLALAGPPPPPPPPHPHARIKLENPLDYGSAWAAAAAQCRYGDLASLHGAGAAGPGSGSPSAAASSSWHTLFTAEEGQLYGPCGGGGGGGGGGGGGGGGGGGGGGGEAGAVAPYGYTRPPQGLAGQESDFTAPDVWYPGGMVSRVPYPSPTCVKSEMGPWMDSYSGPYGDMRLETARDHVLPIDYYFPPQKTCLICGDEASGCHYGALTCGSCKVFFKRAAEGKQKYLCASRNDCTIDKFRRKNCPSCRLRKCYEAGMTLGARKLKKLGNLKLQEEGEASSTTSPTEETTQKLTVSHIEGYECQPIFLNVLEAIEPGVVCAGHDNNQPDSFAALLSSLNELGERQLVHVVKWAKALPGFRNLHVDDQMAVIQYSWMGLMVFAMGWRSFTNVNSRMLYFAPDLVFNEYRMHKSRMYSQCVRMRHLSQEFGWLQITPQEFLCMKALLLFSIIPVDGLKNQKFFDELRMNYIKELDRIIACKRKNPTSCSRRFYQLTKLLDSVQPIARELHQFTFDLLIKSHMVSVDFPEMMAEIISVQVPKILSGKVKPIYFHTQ
# The inconclusive results got no clear call from the source; some entries with a clear call stand among them for comparison. For some assays here: Potencies of inconclusive entries are doubtful fits and often do not repeat. Calls of active or inactive are those of the source. Rule for the calls: active = hit-call score of the fitted dose curve at least 0.9, where 1 is the maximum; inconclusive = response in the unintended direction; inactive = score below 0.9.
# Tests used:
# [1] = ACEA_AR_agonist_AUC_viability: ACEA Biosciences xCELLigence Real-Time Cell Analysis on Androgen Receptor Agonism for Viability (AID 2283775);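 for AC50: viability read 80 hours after compound addition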
# How it was run: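 Viability endpoint from xCELLigence impedance in 22Rv1 prostate cells at 80 h. Eight-point series, 100 uM maximum final.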
# [2] = ACEA_AR_antagonist_AUC_viability: ACEA Biosciences xCELLigence Real-Time Cell Analysis on Androgen Receptor Antagonism for Viability (AID 2283776);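 note: 22Rv1 human prostate cancer cells growing on impedance electrode plates; area under impedance growth curve at 80 h after dosing as viability; hits lower the growth signal relative to DMSO meaning cytotoxicity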
# How it was run: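 Impedance read-out (RT-CES): area under growth curve at 80 h post-dose, loss of signal scored vs DMSO baseline. 22Rv1 cells; 8-pt 1:4 series, top 100 uM final, ≤0.5% DMSO; biological duplicate.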
# [3] = ACEA_ER_AUC_viability: ACEA Biosciences xCELLigence Real-Time Cell Analysis on Estrogen Receptor Agonism for Viability (AID 2283782);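 note: hit means loss of impedance signal meaning reduced cell growth or viability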
# How it was run: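 Viability endpoint: reduced impedance area under the curve relative to DMSO, recorded by real-time electrode sensing over ~80 h of continuous exposure. Duplicate plates of T47D in hormone-depleted medium; eight concentrations, 1:4 dilutions, 100 uM maximum.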
# [4] = target: AR (gene 367) (UniProt P10275); assay: ACEA_AR_agonist_80hr: ACEA Biosciences xCELLigence Real-Time Cell Analysis on Androgen Receptor Agonism for Proliferation (AID 2283783);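 note: hits increase impedance growth signal above DMSO baseline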
# How it was run: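 Eight concentrations, 1:4 serial dilution from a 100 uM final top, in biological duplicate. Impedance-based real-time growth of 22Rv1 cells after overnight baseline, recorded hourly and read at 80 hours. Controls: testosterone, MG132, assay media.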
# [5] = STM_H9_NormalizedViability: Cytotoxicity Assessment at 120 hours in the Stemina devTOX quickPredict H9 human embryonic stem cell (hESC)-based Assay (AID 2283784)
# How it was run: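 Here, H9 cells received test compound with daily medium renewal. Each plate included methotrexate references (1uM, 5 nM), 0.1% DMSO and media blanks; CellTiter-Fluor RFU was normalized to DMSO.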
compound,measurement,setting,value
CS(=O)(=O)c1ccc([C@@H](C[C@H]2CCC(=O)C2)C(=O)Nc2cnccn2)cc1Cl,AC50,[1],inconclusive: 7.28 nM
same,AC50,[2],inconclusive: 0.254 nM
CCCCCC(C=O)=Cc1ccccc1,AC50,[1],inconclusive: 26.2 nM
O=C1OC2(c3ccccc31)c1cc(I)c(O)c(I)c1Oc1c2cc(I)c(O)c1I,AC50,[1],inconclusive: 10000 nM
same,AC50,[2],inconclusive: 10000 nM
CN1CCOCC1,AC50,[1],inconclusive: 4410 nM
same,AC50,[2],inconclusive: 20 nM
C=CC(O)CCCCC (configuration not stated),AC50,[1],inconclusive: 29500 nM
same,outcome,[2],inactive
same,AC50,[3],inconclusive: 50000 nM
C=C1CC[C@H](O)C/C1=C/C=C1\CCC[C@]2(C)[C@@H]([C@H](C)/C=C/[C@H](C)C(C)C)CC[C@@H]12,outcome,[1],inactive
same,AC50,[2],inconclusive: 5.56 nM
Nc1cccc2c(N)cccc12,AC50,[1],inconclusive: 401 nM
same,AC50,[2],inconclusive: 246 nM
same,AC50,[4],active: 115 nM
CC(C)=CCCC(C)=CCCC(C)=CCO,AC50,[1],inconclusive: 118 nM
same,AC50,[2],inconclusive: 186 nM
CC(C)(C)c1ccccc1,AC50,[1],inconclusive: 50000 nM
same,AC50,[2],inconclusive: 129 nM
same,AC50,[3],inconclusive: 355 nM
CC(=O)C(C)=CC1C(C)=CCCC1(C)C (configuration not stated),outcome,[1],inactive
same,AC50,[2],active: 9920 nM
same,AC50,[3],inconclusive: 50000 nM
COC(=O)c1ccccc1C,AC50,[1],inconclusive: 29800 nM
O=C(O)CCC(=O)O,outcome,[1],inactive
same,AC50,[2],inconclusive: 392 nM
same,outcome,[3],inactive
CC1COC(=O)O1 (configuration not stated),AC50,[1],inconclusive: 16600 nM
same,outcome,[2],inactive
CCCCCCCCCCCCc1ccccc1,AC50,[1],inconclusive: 15.1 nM
same,AC50,[2],inconclusive: 10.4 nM
same,AC50,[5],inconclusive: 17.8 nM
Cc1cc(C)cc(O)c1,AC50,[1],inconclusive: 5.65 nM
same,outcome,[2],inactive
same,AC50,[3],inconclusive: 118 nM
CN(C)c1ccc(N=NS(=O)(=O)O)cc1,AC50,[1],inconclusive: 4750 nM
same,AC50,[2],inconclusive: 6550 nM
same,outcome,[3],inactive
same,AC50,[4],active: 10700 nM
C=CCOC(=O)c1ccc(C(=O)OCC=C)c(C(=O)OCC=C)c1,AC50,[1],inconclusive: 28200 nM
same,AC50,[2],inconclusive: 341 nM
same,outcome,[3],inactive
O=C(OCc1ccccc1)c1ccccc1,AC50,[1],inconclusive: 165 nM
O=C1c2c(O)cccc2Cc2cccc(O)c21,AC50,[1],inconclusive: 0.61 nM
CC(C)CC(C)CC(O)CC(C)C (configuration not stated),AC50,[1],inconclusive: 305 nM
same,AC50,[2],inconclusive: 187 nM
same,outcome,[3],inactive

# An excerpt of these results, tab-delimited.
compound	measurement	setting	value
Cc1cc(C)cc(O)c1	outcome	[2]	inactive
CC(C)CC(C)CC(O)CC(C)C (configuration not stated)	AC50	[2]	inconclusive: 187 nM
